Patent publication US20180169145A1, “COMPOSITIONS AND METHODS FOR USING LAMELLAR BODIES FOR THERAPEUTIC PURPOSES” (priority 2015, published 2018)
Some results were stated once for a whole list of compounds, not compound by compound.

System: Burkholderia cenocepacia
Assay: MBEC assay: sessile (biofilm) MIC of antibiotics in absence and presence of LMS-611
Assay type: cell-based
Details: BCC strains; in combination with LMS-611
Experimental: Pseudomonas aeruginosa strains PA01, PAl4, two clinical Cystic Fibrosis (CF) strains H183, YH1 and Burkholderia cenocepacia strains K56-2, YHBCC5, YHBCC6, YHBCC7 and YHBCC8 were grown on a Nunc Immunosorp PEG plate model for 48 h on a rocking platform. […] Scanning electron microscopy was used to assess the treated biofilms.

Row | Molecule | reduction of sessile MIC of the antibiotic by LMS-611
1 | CCN1CCN(C(=O)N[C@@H](C(=O)N[C@@H]2C(=O)N3[C@@H]2SC(C)(C)[C@@H]3C(=O)O)c2ccccc2)C(=O)C1=O [Piperacillin] | 4-8 fold
2 | Gentamicin | 4-8 fold
